This passage reports binding results from PMC10226250.

Sequences of proteins named here, by UniProt entry; tags and fusion partners are left off.
UniProt Q99KP6: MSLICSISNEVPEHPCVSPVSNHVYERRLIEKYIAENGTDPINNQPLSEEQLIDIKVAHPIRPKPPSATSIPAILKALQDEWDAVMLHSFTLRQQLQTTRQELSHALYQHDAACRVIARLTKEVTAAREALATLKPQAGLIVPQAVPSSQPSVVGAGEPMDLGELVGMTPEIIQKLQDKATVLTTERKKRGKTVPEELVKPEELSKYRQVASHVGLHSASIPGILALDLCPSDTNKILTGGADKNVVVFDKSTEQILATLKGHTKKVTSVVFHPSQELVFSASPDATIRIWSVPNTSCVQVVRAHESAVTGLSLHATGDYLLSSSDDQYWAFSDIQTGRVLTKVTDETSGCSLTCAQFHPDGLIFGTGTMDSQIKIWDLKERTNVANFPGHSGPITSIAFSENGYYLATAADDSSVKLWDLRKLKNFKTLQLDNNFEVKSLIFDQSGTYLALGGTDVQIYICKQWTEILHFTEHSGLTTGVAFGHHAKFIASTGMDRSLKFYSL
UniProt Q6A068: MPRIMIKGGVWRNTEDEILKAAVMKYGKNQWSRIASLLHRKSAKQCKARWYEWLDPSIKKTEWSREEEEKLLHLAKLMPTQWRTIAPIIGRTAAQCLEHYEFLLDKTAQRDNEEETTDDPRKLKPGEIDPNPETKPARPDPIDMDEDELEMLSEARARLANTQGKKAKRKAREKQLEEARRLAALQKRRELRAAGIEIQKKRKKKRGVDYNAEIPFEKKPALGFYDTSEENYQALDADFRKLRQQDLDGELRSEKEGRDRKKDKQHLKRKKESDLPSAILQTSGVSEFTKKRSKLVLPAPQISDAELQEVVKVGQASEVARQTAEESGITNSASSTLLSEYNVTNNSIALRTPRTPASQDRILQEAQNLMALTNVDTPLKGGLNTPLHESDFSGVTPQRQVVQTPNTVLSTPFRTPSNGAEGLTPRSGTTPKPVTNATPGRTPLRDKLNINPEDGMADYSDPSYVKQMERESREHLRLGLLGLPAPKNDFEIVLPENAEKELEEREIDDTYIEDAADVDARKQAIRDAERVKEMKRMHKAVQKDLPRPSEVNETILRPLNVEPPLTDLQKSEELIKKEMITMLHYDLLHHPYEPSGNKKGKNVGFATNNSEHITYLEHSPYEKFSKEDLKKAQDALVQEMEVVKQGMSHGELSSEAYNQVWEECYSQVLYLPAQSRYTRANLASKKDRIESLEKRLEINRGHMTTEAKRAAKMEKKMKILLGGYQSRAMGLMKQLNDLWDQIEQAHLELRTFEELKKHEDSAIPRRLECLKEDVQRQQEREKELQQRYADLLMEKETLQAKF

For this assay, the target named is T1, Breast cancer amplified sequence 2 (BCAS2) (mouse (endogenous in ovary)) (UniProt Q9D287).
T1 sequence: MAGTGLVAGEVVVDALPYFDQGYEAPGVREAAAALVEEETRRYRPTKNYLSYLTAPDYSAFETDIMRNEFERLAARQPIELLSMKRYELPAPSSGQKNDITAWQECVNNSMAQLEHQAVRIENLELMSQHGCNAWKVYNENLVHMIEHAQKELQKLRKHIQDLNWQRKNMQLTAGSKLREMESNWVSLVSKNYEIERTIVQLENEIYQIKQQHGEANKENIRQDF
Nature of the assay: co-IP; BCAS2 antibody (rabbit IgG as control) on BeyoMag Protein A beads; lysate of eight-day-old mouse ovaries adsorbed overnight at 4 °C; washed three times with TBST; immunoblot for BCAS2, PRP19 and CDC5L. On the technique in general: In western blotting, separated proteins are transferred to a membrane and probed.

These are yes or no findings as the source states them, for the method shown. Binding seen in cells or lysates may run through a third protein. Some entries that bind do so weakly or less than the wild type.

As for PRP19 (from UniProt Q99KP6 1-504), the binding entry was “binds”.

CDC5L (from UniProt Q6A068 1-802): the binding entry was “binds”.
